{"source": "patent US3944538", "about": "(dated 1976)", "test": "solution-phase peptide synthesis; ortho-nitrophenyl active ester, triethylamine", "conditions": "coupling step"}
{"substance": "tert.Butyloxycarbonyl-L-leucyl-L-leucyl-L-glutaminylglycyl-L-leucyl-L-valinamide", "values": [{"measurement": "step yield", "value": 98.4, "unit": "%"}]}
